Source: doi:10.1101/2019.12.12.873810
These are yes or no findings as the source states them, for the method shown. Binding seen in cells or lysates may run through a third protein. Some results given as binding are weak or reduced against the parent protein; the word gives no strength.

B1: Retinal Degeneration B (RDGB), wild type (protein, UniProt P43125 1-1259)
chain: MLIKEYRIPLPLTVEEYRIAQLYMIAKKSREESHGEGSGVEIIINEPYKDGPGGNGQYTKKIYHVGNHLPGWIKSLLPKSALTVEEEAWNAYPYTRTRYTCPFVEKFSLDIETYYYPDNGYQDNVFQLSGSDLRNRIVDVIDIVKDQLWGGDYVKEEDPKHFVSDKTGRGPLAEDWLEEYWREVKGKKQPTPRNMSLMTAYKICRVEFRYWGMQTKLEKFIHDVALRKMMLRAHRQAWAWQDEWFGLTIEDIRELERQTQLALAKKMGGGEECSDDSVSEPYVSTAATAASTTGSERKKSAPAVPPIVTQQPPSAEASSDEEGEEEEDDDEDENDAIGTGVDLSANQGGSAQRSRSQSIQMAQKGKFGSKGALHSPVGSAHSFDLQVANWRMERLEVDSKSNSDEEFFDCLDTNETNSLAKWSSLELLGEGDDSPPPHGGPSSAASVGGRGNSRQEDSIFNQDFLMRVASERGNKRQLRSSASVDRSHDSSPPGSPSTPSCPTTILILVVHAGSVLDAASELTAKKSDVTTFRGSFEAVMRQHYPSLLTHVTIKMVPCPSICTDALGILSSLSPYSFDASPSAADIPNIADVPIGAIPLLSVASPEFHETVNKTVAAANIVYHEFLKSEEGHGFSGQIVMLGDSMGSLLAYEALCRSNGSQPGTASGASNSGGDAATNINTHNPLSPRNSRLDDDERFIEADLDAKRLLVAPSPRRRRSSSSSDSRATKLDFEVCDFFMFGSPLSVVLAARKLHDAKAALPRPNCHQVYNLFHPTDPIASRLEPLLSARFSILAPVNVPRYAKYPLGNGQPLHLLEVIQSHPQHFNDGNNLLAGRRLSDASMQSTISGLIENVSLSTIHALQNKWWGTKRLDYALYCPEGLSNFPAHALPHLFHASYWESPDVIAFILRQIGKFEGIPFVGSNDDKDNASFHPGQPREKWIKKRTSVKLKNVAANHRANDVIVQEGREQRLNARFMYGPLDMITLHGEKVDVHIMKDPPAGEWTFLSTEVTDKNGRISYSIPDQVSLGYGIYPVKMVVRGDHTSVDCYMAVVPPLTECVVFSIDGSFTASMSVTGRDPKVRAGAVDVCRHWQELGYLLIYITGRPDMQQQRVVSWLSQHNFPHGLISFADGLSTDPLGHKTAYLNNLVQNHGISITAAYGSSKDISVYTNVGMRTDQIFIVGKVGKKLQSNATVLSDGYAAHLAGLQAVGGSRPAKGNARMVIPRGCFNLPGQTANPRRRRYLERKTVSSCCLMVFQTT
B2: RDGB^LNS2Δ (domain or fragment, UniProt P43125 1-1000)
chain: MLIKEYRIPLPLTVEEYRIAQLYMIAKKSREESHGEGSGVEIIINEPYKDGPGGNGQYTKKIYHVGNHLPGWIKSLLPKSALTVEEEAWNAYPYTRTRYTCPFVEKFSLDIETYYYPDNGYQDNVFQLSGSDLRNRIVDVIDIVKDQLWGGDYVKEEDPKHFVSDKTGRGPLAEDWLEEYWREVKGKKQPTPRNMSLMTAYKICRVEFRYWGMQTKLEKFIHDVALRKMMLRAHRQAWAWQDEWFGLTIEDIRELERQTQLALAKKMGGGEECSDDSVSEPYVSTAATAASTTGSERKKSAPAVPPIVTQQPPSAEASSDEEGEEEEDDDEDENDAIGTGVDLSANQGGSAQRSRSQSIQMAQKGKFGSKGALHSPVGSAHSFDLQVANWRMERLEVDSKSNSDEEFFDCLDTNETNSLAKWSSLELLGEGDDSPPPHGGPSSAASVGGRGNSRQEDSIFNQDFLMRVASERGNKRQLRSSASVDRSHDSSPPGSPSTPSCPTTILILVVHAGSVLDAASELTAKKSDVTTFRGSFEAVMRQHYPSLLTHVTIKMVPCPSICTDALGILSSLSPYSFDASPSAADIPNIADVPIGAIPLLSVASPEFHETVNKTVAAANIVYHEFLKSEEGHGFSGQIVMLGDSMGSLLAYEALCRSNGSQPGTASGASNSGGDAATNINTHNPLSPRNSRLDDDERFIEADLDAKRLLVAPSPRRRRSSSSSDSRATKLDFEVCDFFMFGSPLSVVLAARKLHDAKAALPRPNCHQVYNLFHPTDPIASRLEPLLSARFSILAPVNVPRYAKYPLGNGQPLHLLEVIQSHPQHFNDGNNLLAGRRLSDASMQSTISGLIENVSLSTIHALQNKWWGTKRLDYALYCPEGLSNFPAHALPHLFHASYWESPDVIAFILRQIGKFEGIPFVGSNDDKDNASFHPGQPREKWIKKRTSVKLKNVAANHRANDVIVQEGREQRLNARFMYGPLDMITLHGEKVDVHIMKDPPA
B3: RDGB^(DDHD-LNS2)Δ (domain or fragment, UniProt P43125 1-655)
chain: MLIKEYRIPLPLTVEEYRIAQLYMIAKKSREESHGEGSGVEIIINEPYKDGPGGNGQYTKKIYHVGNHLPGWIKSLLPKSALTVEEEAWNAYPYTRTRYTCPFVEKFSLDIETYYYPDNGYQDNVFQLSGSDLRNRIVDVIDIVKDQLWGGDYVKEEDPKHFVSDKTGRGPLAEDWLEEYWREVKGKKQPTPRNMSLMTAYKICRVEFRYWGMQTKLEKFIHDVALRKMMLRAHRQAWAWQDEWFGLTIEDIRELERQTQLALAKKMGGGEECSDDSVSEPYVSTAATAASTTGSERKKSAPAVPPIVTQQPPSAEASSDEEGEEEEDDDEDENDAIGTGVDLSANQGGSAQRSRSQSIQMAQKGKFGSKGALHSPVGSAHSFDLQVANWRMERLEVDSKSNSDEEFFDCLDTNETNSLAKWSSLELLGEGDDSPPPHGGPSSAASVGGRGNSRQEDSIFNQDFLMRVASERGNKRQLRSSASVDRSHDSSPPGSPSTPSCPTTILILVVHAGSVLDAASELTAKKSDVTTFRGSFEAVMRQHYPSLLTHVTIKMVPCPSICTDALGILSSLSPYSFDASPSAADIPNIADVPIGAIPLLSVASPEFHETVNKTVAAANIVYHEFLKSEEGHGFSGQIVMLGDSMGSLLAYEALC
B4: RDGB^(USR1-LNS2)Δ (domain or fragment, UniProt P43125 1-472)
chain: MLIKEYRIPLPLTVEEYRIAQLYMIAKKSREESHGEGSGVEIIINEPYKDGPGGNGQYTKKIYHVGNHLPGWIKSLLPKSALTVEEEAWNAYPYTRTRYTCPFVEKFSLDIETYYYPDNGYQDNVFQLSGSDLRNRIVDVIDIVKDQLWGGDYVKEEDPKHFVSDKTGRGPLAEDWLEEYWREVKGKKQPTPRNMSLMTAYKICRVEFRYWGMQTKLEKFIHDVALRKMMLRAHRQAWAWQDEWFGLTIEDIRELERQTQLALAKKMGGGEECSDDSVSEPYVSTAATAASTTGSERKKSAPAVPPIVTQQPPSAEASSDEEGEEEEDDDEDENDAIGTGVDLSANQGGSAQRSRSQSIQMAQKGKFGSKGALHSPVGSAHSFDLQVANWRMERLEVDSKSNSDEEFFDCLDTNETNSLAKWSSLELLGEGDDSPPPHGGPSSAASVGGRGNSRQEDSIFNQDFLMRVASER

Biological target: T1, dVAP-A (Drosophila (endogenous in fly heads)) (UniProt Q9W4N8)
T1 sequence: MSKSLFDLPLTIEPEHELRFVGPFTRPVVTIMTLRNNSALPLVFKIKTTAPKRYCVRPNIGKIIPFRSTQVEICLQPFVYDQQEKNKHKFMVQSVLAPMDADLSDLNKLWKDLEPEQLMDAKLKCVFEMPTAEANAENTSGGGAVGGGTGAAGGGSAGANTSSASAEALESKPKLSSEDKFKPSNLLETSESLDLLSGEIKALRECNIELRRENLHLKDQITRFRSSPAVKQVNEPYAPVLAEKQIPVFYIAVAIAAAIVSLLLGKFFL
Assay: co-IP

Binder | binding
B1 | binds
B2 | binds
B3 | binds
B4 | no binding
